The values that follow come from PMC3044755.

Protein sequences, listed by entry. Tags and fused reporters are not part of them. Lines headed by an entry give the natural chain unless they say otherwise; changes in a name come on top.
UniProt P61586: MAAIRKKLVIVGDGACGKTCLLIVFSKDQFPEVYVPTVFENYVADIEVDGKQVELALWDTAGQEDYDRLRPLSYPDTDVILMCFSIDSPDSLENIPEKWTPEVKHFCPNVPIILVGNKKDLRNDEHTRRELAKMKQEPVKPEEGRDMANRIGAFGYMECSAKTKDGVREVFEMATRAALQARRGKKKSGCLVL

These are yes or no findings as the source states them, for the method shown. Binding seen in cells or lysates may run through a third protein. Some results given as binding are weak or reduced against the parent protein; the word gives no strength.

The target in the test is GST-RhoA(G17A), nucleotide-free RhoA mutant (UniProt P61586). The experiment in a line: pull-down; 20 ug purified GST-RhoA(17A) on glutathione-sepharose beads incubated 60 min at 4°C with PNS or nuclear fractions of HEK293 cells in 20 mM Hepes pH 7.6, 150 mM NaCl, 1% Triton X-100, 5 mM MgCl2; blotted for the GEFs; cells or isolated nuclei untreated or irradiated (10 Gy); only the target purified.

B1: Net1 (RhoA-specific GEF), endogenous (protein, UniProt Q7Z628 1-596)
chain: MEPELAAQKQPRPRRRSRRASGLSTEGATGPSADTSGSELDGRCSLRRGSSFTFLTPGPNWDFTLKRKRREKDDDVVSLSSLDLKEPSNKRVRPLARVTSLANLISPVRNGAVRRFGQTIQSFTLRGDHRSPASAQKFSSRSTVPTPAKRRSSALWSEMLDITMKESLTTREIRRQEAIYEMSRGEQDLIEDLKLARKAYHDPMLKLSIMSEEELTHIFGDLDSYIPLHEDLLTRIGEATKPDGTVEQIGHILVSWLPRLNAYRGYCSNQLAAKALLDQKKQDPRVQDFLQRCLESPFSRKLDLWSFLDIPRSRLVKYPLLLKEILKHTPKEHPDVQLLEDAILIIQGVLSDINLKKGESECQYYIDKLEYLDEKQRDPRIEASKVLLCHGELRSKSGHKLYIFLFQDILVLTRPVTRNERHSYQVYRQPIPVQELVLEDLQDGDVRMGGSFRGAFSNSEKAKNIFRIRFHDPSPAQSHTLQANDVFHKQQWFNCIRAAIAPFQSAGSPPELQGLPELHEECEGNHPSARKLTAQRRASTVSSVTQVEVDENAYRCGSGMQMAEDSKSLKTHQTQPGIRRARDKALSGGKRKETLV
B1: the binding entry is listed as “binds”.
